The values that follow come from the supplement of paper PMC10032668.

Chains of the proteins cited; added tags and fusions are not shown.
HDAC1, Q13547, UniProt Q13547, whole entry: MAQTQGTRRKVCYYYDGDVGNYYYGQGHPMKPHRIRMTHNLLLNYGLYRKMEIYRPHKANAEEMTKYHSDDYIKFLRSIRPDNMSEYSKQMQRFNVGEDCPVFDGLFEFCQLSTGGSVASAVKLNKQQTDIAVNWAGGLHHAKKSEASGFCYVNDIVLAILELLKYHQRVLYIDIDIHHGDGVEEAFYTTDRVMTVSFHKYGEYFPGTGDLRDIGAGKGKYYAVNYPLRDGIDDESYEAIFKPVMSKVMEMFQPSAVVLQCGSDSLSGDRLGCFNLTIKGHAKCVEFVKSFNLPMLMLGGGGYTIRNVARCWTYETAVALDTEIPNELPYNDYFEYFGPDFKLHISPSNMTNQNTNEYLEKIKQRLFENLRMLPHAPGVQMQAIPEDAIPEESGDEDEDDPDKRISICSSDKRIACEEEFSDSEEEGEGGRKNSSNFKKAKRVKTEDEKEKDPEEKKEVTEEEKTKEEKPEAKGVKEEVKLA
SMARCE1, Q969G3, UniProt Q969G3, whole entry: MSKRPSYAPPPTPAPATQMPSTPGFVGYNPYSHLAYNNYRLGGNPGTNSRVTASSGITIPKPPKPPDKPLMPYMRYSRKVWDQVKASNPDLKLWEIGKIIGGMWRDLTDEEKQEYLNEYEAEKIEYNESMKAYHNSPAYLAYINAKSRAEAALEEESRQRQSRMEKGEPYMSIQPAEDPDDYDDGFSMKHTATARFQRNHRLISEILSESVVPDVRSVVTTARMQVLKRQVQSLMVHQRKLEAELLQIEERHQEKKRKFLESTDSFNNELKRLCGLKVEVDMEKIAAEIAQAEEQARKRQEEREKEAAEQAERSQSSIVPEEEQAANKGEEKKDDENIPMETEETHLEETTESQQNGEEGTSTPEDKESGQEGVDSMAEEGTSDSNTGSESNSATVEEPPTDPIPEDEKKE
MECP2, P51608, UniProt P51608, whole entry: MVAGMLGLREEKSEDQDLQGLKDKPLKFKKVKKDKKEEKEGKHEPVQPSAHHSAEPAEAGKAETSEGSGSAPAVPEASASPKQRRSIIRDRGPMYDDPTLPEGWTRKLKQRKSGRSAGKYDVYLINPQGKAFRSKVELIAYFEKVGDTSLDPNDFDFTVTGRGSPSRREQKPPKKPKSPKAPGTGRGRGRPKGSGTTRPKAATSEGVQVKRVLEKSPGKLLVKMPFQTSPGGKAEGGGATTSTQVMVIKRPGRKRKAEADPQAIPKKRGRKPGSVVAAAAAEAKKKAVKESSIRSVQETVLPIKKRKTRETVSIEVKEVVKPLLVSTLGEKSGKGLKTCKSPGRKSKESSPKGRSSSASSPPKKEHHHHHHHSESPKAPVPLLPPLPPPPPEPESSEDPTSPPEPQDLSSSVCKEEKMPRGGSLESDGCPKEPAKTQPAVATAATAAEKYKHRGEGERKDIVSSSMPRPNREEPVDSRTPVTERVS
EPB41L2, O43491, UniProt O43491, whole entry: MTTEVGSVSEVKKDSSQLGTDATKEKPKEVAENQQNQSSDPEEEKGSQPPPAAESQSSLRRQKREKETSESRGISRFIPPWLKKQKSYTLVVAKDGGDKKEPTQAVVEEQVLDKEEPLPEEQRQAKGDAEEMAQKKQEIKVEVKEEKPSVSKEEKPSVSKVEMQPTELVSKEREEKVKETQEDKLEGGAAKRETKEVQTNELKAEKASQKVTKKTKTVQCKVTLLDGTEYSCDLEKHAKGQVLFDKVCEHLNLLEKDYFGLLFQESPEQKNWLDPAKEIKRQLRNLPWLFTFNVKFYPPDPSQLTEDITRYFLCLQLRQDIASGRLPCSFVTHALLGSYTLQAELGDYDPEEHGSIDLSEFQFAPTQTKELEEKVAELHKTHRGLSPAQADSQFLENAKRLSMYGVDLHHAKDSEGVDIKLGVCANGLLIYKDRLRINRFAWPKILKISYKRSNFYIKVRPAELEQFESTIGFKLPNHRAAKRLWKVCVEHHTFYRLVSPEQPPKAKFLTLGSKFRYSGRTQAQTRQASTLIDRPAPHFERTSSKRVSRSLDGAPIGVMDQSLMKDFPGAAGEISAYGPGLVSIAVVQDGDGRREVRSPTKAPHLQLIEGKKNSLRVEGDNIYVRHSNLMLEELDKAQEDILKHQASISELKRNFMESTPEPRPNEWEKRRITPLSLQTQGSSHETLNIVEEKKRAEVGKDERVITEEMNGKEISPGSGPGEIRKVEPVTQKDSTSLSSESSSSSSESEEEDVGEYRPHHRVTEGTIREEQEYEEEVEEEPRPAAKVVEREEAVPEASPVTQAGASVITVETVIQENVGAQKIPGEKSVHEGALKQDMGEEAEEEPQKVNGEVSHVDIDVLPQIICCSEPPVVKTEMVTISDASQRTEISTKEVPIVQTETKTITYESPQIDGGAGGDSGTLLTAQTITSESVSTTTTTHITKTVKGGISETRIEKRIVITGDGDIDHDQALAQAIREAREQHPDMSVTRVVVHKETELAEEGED
RANBP1, P43487, UniProt P43487, whole entry: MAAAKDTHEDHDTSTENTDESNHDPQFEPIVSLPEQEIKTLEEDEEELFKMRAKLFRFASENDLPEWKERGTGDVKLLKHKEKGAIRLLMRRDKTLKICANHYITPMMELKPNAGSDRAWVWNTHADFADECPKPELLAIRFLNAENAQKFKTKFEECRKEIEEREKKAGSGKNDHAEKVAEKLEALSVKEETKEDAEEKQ
TRRAP, Q9Y4A5, UniProt Q9Y4A5, whole entry: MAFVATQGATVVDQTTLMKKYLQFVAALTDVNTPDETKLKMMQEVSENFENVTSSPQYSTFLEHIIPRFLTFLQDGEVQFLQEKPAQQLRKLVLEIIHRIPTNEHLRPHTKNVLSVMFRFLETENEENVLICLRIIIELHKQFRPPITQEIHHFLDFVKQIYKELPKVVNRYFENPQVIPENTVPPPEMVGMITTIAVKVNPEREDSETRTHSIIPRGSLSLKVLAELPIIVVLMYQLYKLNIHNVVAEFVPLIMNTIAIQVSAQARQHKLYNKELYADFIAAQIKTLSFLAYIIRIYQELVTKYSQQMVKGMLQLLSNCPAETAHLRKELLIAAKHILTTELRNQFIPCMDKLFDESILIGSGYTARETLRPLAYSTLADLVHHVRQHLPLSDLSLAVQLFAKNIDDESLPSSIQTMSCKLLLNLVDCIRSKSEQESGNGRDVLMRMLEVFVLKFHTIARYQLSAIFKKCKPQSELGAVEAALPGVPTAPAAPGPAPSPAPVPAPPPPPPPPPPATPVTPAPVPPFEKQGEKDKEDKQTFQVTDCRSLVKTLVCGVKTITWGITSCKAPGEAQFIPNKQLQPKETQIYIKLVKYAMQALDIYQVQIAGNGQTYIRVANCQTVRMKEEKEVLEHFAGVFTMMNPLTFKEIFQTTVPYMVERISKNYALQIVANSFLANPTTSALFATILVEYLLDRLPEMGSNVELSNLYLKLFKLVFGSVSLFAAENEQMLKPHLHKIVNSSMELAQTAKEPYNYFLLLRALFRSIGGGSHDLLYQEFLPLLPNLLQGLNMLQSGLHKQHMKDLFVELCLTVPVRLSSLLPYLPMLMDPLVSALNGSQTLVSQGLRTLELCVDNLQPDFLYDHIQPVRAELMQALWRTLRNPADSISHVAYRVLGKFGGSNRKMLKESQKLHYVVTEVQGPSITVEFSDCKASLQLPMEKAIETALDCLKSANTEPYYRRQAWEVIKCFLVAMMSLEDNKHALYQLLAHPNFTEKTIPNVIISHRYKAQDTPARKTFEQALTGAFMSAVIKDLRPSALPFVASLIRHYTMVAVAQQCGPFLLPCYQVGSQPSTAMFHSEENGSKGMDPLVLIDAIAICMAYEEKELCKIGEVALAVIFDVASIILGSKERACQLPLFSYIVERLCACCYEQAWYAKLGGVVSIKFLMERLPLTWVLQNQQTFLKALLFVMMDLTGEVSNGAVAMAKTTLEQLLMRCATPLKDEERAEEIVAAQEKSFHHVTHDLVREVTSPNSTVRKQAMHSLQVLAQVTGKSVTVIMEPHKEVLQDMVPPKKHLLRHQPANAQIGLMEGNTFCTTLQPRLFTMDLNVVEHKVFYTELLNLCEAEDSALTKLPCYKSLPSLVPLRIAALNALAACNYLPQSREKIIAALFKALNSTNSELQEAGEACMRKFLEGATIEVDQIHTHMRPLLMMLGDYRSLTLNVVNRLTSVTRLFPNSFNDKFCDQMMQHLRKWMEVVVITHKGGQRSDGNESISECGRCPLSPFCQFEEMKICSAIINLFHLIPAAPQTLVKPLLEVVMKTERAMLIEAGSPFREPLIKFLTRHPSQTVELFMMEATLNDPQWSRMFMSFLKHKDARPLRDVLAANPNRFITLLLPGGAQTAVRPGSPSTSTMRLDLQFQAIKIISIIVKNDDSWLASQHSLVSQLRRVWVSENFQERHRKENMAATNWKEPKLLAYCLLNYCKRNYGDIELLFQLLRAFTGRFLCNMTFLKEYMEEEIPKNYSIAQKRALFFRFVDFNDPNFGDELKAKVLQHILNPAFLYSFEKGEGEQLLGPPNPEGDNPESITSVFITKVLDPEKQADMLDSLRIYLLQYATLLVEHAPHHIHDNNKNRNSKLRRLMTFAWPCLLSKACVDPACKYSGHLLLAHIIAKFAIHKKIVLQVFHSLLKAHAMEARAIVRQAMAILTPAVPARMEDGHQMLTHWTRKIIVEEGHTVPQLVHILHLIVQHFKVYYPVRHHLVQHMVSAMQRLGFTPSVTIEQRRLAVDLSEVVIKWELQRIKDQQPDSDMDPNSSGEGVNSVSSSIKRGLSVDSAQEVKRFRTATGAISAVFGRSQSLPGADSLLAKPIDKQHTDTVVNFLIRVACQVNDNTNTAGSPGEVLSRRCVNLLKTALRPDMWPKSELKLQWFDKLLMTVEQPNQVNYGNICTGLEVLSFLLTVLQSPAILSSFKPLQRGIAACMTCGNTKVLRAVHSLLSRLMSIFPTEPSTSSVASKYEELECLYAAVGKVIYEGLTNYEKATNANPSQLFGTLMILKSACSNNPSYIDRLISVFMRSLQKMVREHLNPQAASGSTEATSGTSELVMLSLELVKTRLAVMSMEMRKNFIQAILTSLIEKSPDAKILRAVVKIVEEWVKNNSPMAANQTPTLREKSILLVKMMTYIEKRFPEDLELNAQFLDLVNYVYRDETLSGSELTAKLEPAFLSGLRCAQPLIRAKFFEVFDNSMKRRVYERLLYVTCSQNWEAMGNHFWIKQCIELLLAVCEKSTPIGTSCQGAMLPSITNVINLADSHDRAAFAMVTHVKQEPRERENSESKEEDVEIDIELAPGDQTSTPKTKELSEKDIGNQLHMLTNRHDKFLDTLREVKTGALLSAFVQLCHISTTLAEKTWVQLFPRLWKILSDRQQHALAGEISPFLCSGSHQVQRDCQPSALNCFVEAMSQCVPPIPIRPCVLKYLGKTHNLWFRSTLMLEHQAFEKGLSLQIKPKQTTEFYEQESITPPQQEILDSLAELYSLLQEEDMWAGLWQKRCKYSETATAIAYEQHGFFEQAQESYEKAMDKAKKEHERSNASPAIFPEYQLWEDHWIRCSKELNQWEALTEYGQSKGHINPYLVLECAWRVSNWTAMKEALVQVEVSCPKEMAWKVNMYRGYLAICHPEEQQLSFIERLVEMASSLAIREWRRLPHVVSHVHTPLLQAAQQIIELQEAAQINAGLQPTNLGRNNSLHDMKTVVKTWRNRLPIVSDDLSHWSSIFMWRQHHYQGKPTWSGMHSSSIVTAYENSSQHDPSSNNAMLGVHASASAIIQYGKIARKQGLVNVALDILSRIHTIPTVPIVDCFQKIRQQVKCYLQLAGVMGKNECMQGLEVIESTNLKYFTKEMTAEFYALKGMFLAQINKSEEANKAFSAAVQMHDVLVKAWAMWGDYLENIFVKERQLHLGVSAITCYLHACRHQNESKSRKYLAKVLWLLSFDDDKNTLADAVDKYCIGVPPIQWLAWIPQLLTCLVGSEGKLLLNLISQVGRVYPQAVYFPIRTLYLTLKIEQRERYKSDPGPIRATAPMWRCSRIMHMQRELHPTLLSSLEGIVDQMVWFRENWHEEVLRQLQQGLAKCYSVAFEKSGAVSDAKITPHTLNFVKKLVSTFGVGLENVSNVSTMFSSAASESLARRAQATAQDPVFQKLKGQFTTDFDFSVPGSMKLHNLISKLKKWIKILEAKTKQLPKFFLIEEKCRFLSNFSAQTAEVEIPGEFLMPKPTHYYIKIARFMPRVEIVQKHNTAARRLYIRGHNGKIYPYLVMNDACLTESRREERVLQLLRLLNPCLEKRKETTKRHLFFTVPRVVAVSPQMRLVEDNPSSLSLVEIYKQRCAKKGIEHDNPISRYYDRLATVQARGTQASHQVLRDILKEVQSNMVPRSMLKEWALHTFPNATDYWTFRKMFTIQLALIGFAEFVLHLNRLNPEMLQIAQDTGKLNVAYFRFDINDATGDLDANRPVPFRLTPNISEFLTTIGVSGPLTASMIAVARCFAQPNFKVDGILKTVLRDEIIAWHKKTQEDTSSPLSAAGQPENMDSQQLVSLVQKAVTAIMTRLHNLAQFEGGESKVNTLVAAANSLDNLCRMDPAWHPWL

± gives the standard deviation of the averaged measurements. This is one part of the list. Only hits are listed; about a third recur on repeated control peptides.

Common to all, as to test: PRISMA enrichment of interactor (LFQ) in peptide spot vs all other peptide spots (log2 fold change); higher = stronger / more specific binding of the interactor to the peptide
One assay has as its target ALDH4A1, P30038. On the procedure: (§1)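 PRISMA: 15-aa overlapping tiles (offset 8 aa) of 60 microproteins, plus SOS1/GLUT1 control peptides, were spot-synthesized on cellulose membranes in triplicate. Membranes were incubated with benzonase-treated HEK293T lysate, and bound proteins were identified by LC-MS/MS with LFQ. Enrichment is the log2 fold change of each protein in one spot versus all other spots. Only interactors passing the significance cutoff are listed.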

The target of a further assay is DFFA, O00273. On the procedure:
as §1

A further assay addresses DNAJB4, Q9UDY4. The procedure:
as §1

The next assay deals with GAPVD1, Q14C86. The procedure:
as §1

The next assay concerns the target HADHB, P55084. On the procedure:
as §1

The next assay addresses HDAC1, Q13547. The procedure:
as §1

The target in the next assay is HDDC2, Q7Z4H3. On the procedure: as §1
The target of the next assay is LSG1, Q9H089. The procedure:
as §1

The target in a further assay is NKRF, O15226. On the procedure: as §1
For another assay, the target named is OPA1, O60313. On the procedure:
as §1

The target of another assay is RAB6A, P20340. On the procedure: as §1
Another assay has as its target RCL1, Q9Y2P8. On the procedure:
as §1

For a further assay, the target named is SMARCE1, Q969G3. On the procedure:
as §1

A further assay deals with SNX2, O60749. On the procedure:
as §1

For a further assay, the target named is STIP1, P31948. The procedure:
as §1

The next assay addresses YIPF5, Q969M3. On the procedure: as §1
The target in another assay is ALKBH2, Q6NS38. On the procedure:
as §1

The target of a further assay is CRTAP, O75718. The procedure: as §1
The target of the next assay is CTBP1, Q13363. The procedure:
as §1

The target in the next assay is EP400, Q96L91. The procedure: as §1
For another assay, the target named is FARSA, Q9Y285. The procedure: as §1
The next assay has as its target GPBP1, Q86WP2. The procedure: as §1
The next assay addresses MECP2, P51608. On the procedure:
as §1

The target of another assay is NUP54, Q7Z3B4. The procedure: as §1
The next assay concerns the target SFSWAP, Q12872. The procedure:
as §1

Another assay concerns the target ALDH9A1, P49189. On the procedure:
as §1

The target of another assay is ANP32A, P39687. The procedure: as §1
The target of a further assay is ANP32B, Q92688. On the procedure:
as §1

The next assay has as its target C1QBP, Q07021. The procedure:
as §1

The next assay concerns the target CXorf56, Q9H5V9. The procedure: as §1
A further assay deals with EPB41L2, O43491. On the procedure:
as §1

In a further assay the target is FAM50A, Q14320. The procedure: as §1
Another assay concerns the target MRPL27, Q9P0M9. The procedure:
as §1

In another assay the target is NAP1L1, P55209. On the procedure: as §1
The target in a further assay is PRIM1, P49642. On the procedure: as §1
The next assay deals with RANBP1, P43487. On the procedure: as §1
A further assay addresses RPS29, P62273. On the procedure:
as §1

Another assay deals with TRRAP, Q9Y4A5. The procedure:
as §1

In the case of AGRGGSTPWAPHSPP [C5orf56], the “PRISMA enrichment of interactor (log2)” value came to 4.56 in the assay with ALDH4A1, P30038; 7.82 with DFFA, O00273; 6.21 with DNAJB4, Q9UDY4; 5.05 with GAPVD1, Q14C86; 5.63 in the assay with HADHB, P55084; 8.27 in the assay with HDAC1, Q13547. The “PRISMA enrichment of interactor (log2)” value came out at 5.12 with HDDC2, Q7Z4H3; 4.57 in the assay with LSG1, Q9H089; 5.01 with NKRF, O15226; 5.94 with OPA1, O60313; 4.39 in the assay with RAB6A, P20340; 6.75 with RCL1, Q9Y2P8. Moreover, the “PRISMA enrichment of interactor (log2)” value with SMARCE1, Q969G3 turned out to be 6.25; with SNX2, O60749, 5.29; with STIP1, P31948, 5.01; with YIPF5, Q969M3, 4.26.

Regarding LLGWQANRLRRRYLD [MTLN], the “PRISMA enrichment of interactor (log2)” value with ALKBH2, Q6NS38 came out at 6.17; with CRTAP, O75718, 4.66; with CTBP1, Q13363 it was 3.92; in the assay with EP400, Q96L91, 5.05; with FARSA, Q9Y285, 4.16; with GPBP1, Q86WP2, 3.91. For the same molecule, the “PRISMA enrichment of interactor (log2)” value with MECP2, P51608 is 3.99; with NUP54, Q7Z3B4, 4.68; with SFSWAP, Q12872 it was 6.72.

Consider KPPPRRRARGPGGGP [RP11-140K17.3_2], for which the “PRISMA enrichment of interactor (log2)” value turned out to be 6.62 with ALDH9A1, P49189; 6.36 with ANP32A, P39687; 6.27 with ANP32B, Q92688; 6.51 in the assay with C1QBP, Q07021; 5.47 with CXorf56, Q9H5V9; 4.51 in the assay with EPB41L2, O43491. Also, the “PRISMA enrichment of interactor (log2)” value was 4.89 in the assay with FAM50A, Q14320; 6.84 with MRPL27, Q9P0M9; 5.95 ± 0.13 in the assay with NAP1L1, P55209; 6.17 with PRIM1, P49642; 5.39 with RANBP1, P43487; 4.82 with RPS29, P62273. The “PRISMA enrichment of interactor (log2)” value with TRRAP, Q9Y4A5 turned out to be 5.13.
